From PubChem BioAssay (NCATS)
The shares of active, inactive and inconclusive entries below differ from those in the screen. For part of these data: Where the call is inconclusive, the potency comes from a doubtful curve fit. Calls of active or inactive are those of the source. Calls follow the shape of the dose curve; as a rule, active = well fitted curve in the direction sought with a large enough effect; inconclusive = small, poorly fitted or top-dose-only effect, or another doubt; inactive = no such curve, though single readings can be large; an effect the other way counts as inactive or inconclusive.

Assays:
[1] = Quantitative High-Throughput drug screen in 47 multiple myeloma cell lines against the NCATS MIPE library collection: MMM1_PLB cell viability assay (AID 1918976); also: potency is read from the fitted curve at half-maximal effect; nearly all actives have a fitted effect of over 35% in size
How it was run: (§1)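 500 cells/well; MIPE 4.0 drugs pin-transferred; 48 h, 37C, 5% CO2. CellTiter-Glo, 5 min RT, luminescence. Controls: DMSO 100%, media 0%.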

[2] = Quantitative High-Throughput drug screen in 47 multiple myeloma cell lines against the NCATS MIPE library collection: MOLP8_DSMZ cell viability assay (AID 1918977); details: MOLP8 myeloma viability, CellTiter-Glo ATP luminescence, 48 h; viability (% of control): at 45.8 µM (top of the series); also: nearly all actives have a fitted effect of over 45% in size
How it was run: as §1

[3] = Quantitative High-Throughput drug screen in 47 multiple myeloma cell lines against the NCATS MIPE library collection: OCIMY1_PLB cell viability assay (AID 1918979); also: nearly all actives have a fitted effect of over 35% in size
How it was run: as §1

[4] = Quantitative High-Throughput drug screen in 47 multiple myeloma cell lines against the NCATS MIPE library collection: MM1S_ATCC cell viability assay (AID 1918980); also: nearly all actives have a fitted effect of over 45% in size
How it was run: as §1

[5] = Quantitative High-Throughput drug screen in 47 multiple myeloma cell lines against the NCATS MIPE library collection: LP1_DSMZ cell viability assay (AID 1918982); also: nearly all actives have a fitted effect of over 35% in size
How it was run: as §1

[6] = Quantitative High-Throughput drug screen in 47 multiple myeloma cell lines against the NCATS MIPE library collection: L363_DSMZ cell viability assay (AID 1918984); details: L363 myeloma viability, CellTiter-Glo ATP luminescence, 48 h; viability (% of control): at 45.8 µM (top of the series); also: potency is read from the fitted curve at half-maximal effect; nearly all actives have a fitted effect of over 40% in size
How it was run: as §1

[7] = Quantitative High-Throughput drug screen in 47 multiple myeloma cell lines against the NCATS MIPE library collection: KMS34_JCRB cell viability assay (AID 1918985); also: potency is read from the fitted curve at half-maximal effect; nearly all actives have a fitted effect of over 40% in size
How it was run: as §1

[8] = Quantitative High-Throughput drug screen in 47 multiple myeloma cell lines against the NCATS MIPE library collection: OCIMY7_PLB cell viability assay (AID 1918987); details: OCI-MY7 myeloma viability, CellTiter-Glo ATP, 48 h; series mostly up to 45.8 µM; also: potency is read from the fitted curve at half-maximal effect; nearly all actives have a fitted effect of over 65% in size
How it was run: as §1

[9] = Quantitative High-Throughput drug screen in 47 multiple myeloma cell lines against the NCATS MIPE library collection: OCIMY5_PLB cell viability assay (AID 1918988); also: potency is read from the fitted curve at half-maximal effect; nearly all actives have a fitted effect of over 65% in size
How it was run: as §1

[10] = Quantitative High-Throughput drug screen in 47 multiple myeloma cell lines against the NCATS MIPE library collection: OPM1_PLB cell viability assay (AID 1918989); also: potency is read from the fitted curve at half-maximal effect; nearly all actives have a fitted effect of over 40% in size
How it was run: as §1

[11] = Quantitative High-Throughput drug screen in 47 multiple myeloma cell lines against the NCATS MIPE library collection: SKMM1_PLB cell viability assay (AID 1919863); details: SKMM1 myeloma viability, CellTiter-Glo ATP, 48 h; viability: stronger effect = lower value; also: potency is read from the fitted curve at half-maximal effect; nearly all actives have a fitted effect of over 35% in size
How it was run: as §1

[12] = Quantitative High-Throughput drug screen in 47 multiple myeloma cell lines against the NCATS MIPE library collection: U266_ATCC cell viability assay (AID 1919864); also: nearly all actives have a fitted effect of over 35% in size
How it was run: as §1

[13] = Quantitative High-Throughput drug screen in 47 multiple myeloma cell lines against the NCATS MIPE library collection: UTMC2_PLB cell viability assay (AID 1919868); details: CellTiter-Glo ATP luminescence, 48 h; series mostly up to 45.8 µM; also: potency is read from the fitted curve at half-maximal effect; nearly all actives have a fitted effect of over 55% in size
How it was run: as §1

[14] = Quantitative High-Throughput drug screen in 47 multiple myeloma cell lines against the NCATS MIPE library collection: PE2_PLB cell viability assay (AID 1919869); details: PE2_PLB myeloma cells viability, ATP luminescence, 48 h; viability (% of control): at 45.8 µM (top of the series)
How it was run: as §1

[15] = Quantitative High-Throughput drug screen in 47 multiple myeloma cell lines against the NCATS MIPE library collection: PCM6_Riken cell viability assay (AID 1919870); also: potency is read from the fitted curve at half-maximal effect; nearly all actives have a fitted effect of over 30% in size
How it was run: as §1

[16] = Quantitative High-Throughput drug screen in 47 multiple myeloma cell lines against the NCATS MIPE library collection: KMS11_JCRBsus cell viability assay (AID 1919873); also: potency is read from the fitted curve at half-maximal effect; nearly all actives have a fitted effect of over 50% in size
How it was run: as §1

[17] = Quantitative High-Throughput drug screen in 47 multiple myeloma cell lines against the NCATS MIPE library collection: KMS28BM_JCRB cell viability assay (AID 1919874)
How it was run: as §1

[18] = test system: HEK293; assay: Cytotoxic Profiling of Annotated Libraries Using Quantitative High-Throughput Screening (AID 1296008); details: Five cell lines viability, CellTiter-Glo ATP luminescence, 48-72 h; max response: stronger effect = lower value; also: potency is read from the fitted curve at half-maximal effect; nearly all actives have a fitted effect of over 60% in size
How it was run: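 Cells exposed to compounds for 48 or 72 hr at 37 degrees Celsius. Viability read as ATP-coupled luminescence with CellTiter-Glo after 10 min at room temperature.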

[19] = test system: WaGa; assay: qHTS assay to identify novel small-molecules to repurpose for Merkel cell carcinoma treatment (AID 1296009); details: MCC and control cell lines, CellTiter-Glo viability, 72 h; series mostly up to 46 µM; also: potency is read from the fitted curve at half-maximal effect; nearly all actives have a fitted effect of over 60% in size
How it was run: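 CellTiter-Glo luminescence after 72 hr compound exposure at 37 degree celsius gave cell viability. Libraries NPC and MIPE were run as 8- and 11-point dose responses; RLUs normalized to DMSO (negative) and no-cell (cytotoxicity) controls.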

[20] = test system: Es-2; assay: Primary qHTS to identify gynecologic anti-cancer compounds using libraries of approved drugs and bioactive compounds (AID 1345084); details: Gynecologic cancer cell panel viability, ATPlite luminescence, 48 h; series mostly up to 57.5 µM; also: potency is read from the fitted curve at half-maximal effect; nearly all actives have a fitted effect of over 55% in size
How it was run: (§2)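 ATP-based viability (ATPlite), 1,000 cells/well, 16 h pre-incubation, 48 h compound at 37 C, 5% CO2, 15 min RT before read.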

[21] = test system: Hek293T; assay: as above; details: Gynecologic cancer cell panel viability, ATPlite luminescence, 48 h, control line for the selectivity index; series mostly up to 57.5 µM
How it was run: as §2

[22] = test system: OV90; assay: as above; details: Gynecologic cancer cell panel viability, ATPlite luminescence, 48 h; series mostly up to 57.5 µM
How it was run: as §2

[23] = test system: SKOV3; assay: as above; details: Gynecologic cancer cell panel viability, ATPlite luminescence, 48 h; series mostly up to 57.5 µM
How it was run: as §2

[24] = test system: astro; assay: Drug repurposing screens with cells derived from glioblastoma tumor samples (AID 1345199); details: viability, ATP luminescence, 48 h; series mostly up to 45.9 µM; also: potency is read from the fitted curve at half-maximal effect; nearly all actives have a fitted effect of over 40% in size
How it was run: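 Primary testing used CD133+ neurospheres from four GBM patients, seven concentrations, 48 h exposure and ATP-based viability; confirmation added three slower-growing patient lines.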

Measured: Potency

CN1C[C@H]2c3ccccc3Oc3ccc(Cl)cc3[C@@H]2C1
active: [9] 13.2 µM | [15] 11.8 µM
inconclusive: [1] 0.0372 µM [rising, full curve, poor fit] | [6] 13.2 µM [cytotoxic, partial curve, poor fit] | [7] 0.0037 µM [rising, full curve, poor fit] | [8] 23.5 µM [cytotoxic, partial curve, poor fit] | [10] 5.9 µM [cytotoxic, partial curve, poor fit] | [11] 0.0012 µM [rising, full curve, poor fit] | [13] 0.001 µM [cytotoxic] | [14] 13.2 µM [cytotoxic, partial curve, poor fit] | [16] 37.2 µM [cytotoxic, single point] | [17] 14.8 µM [cytotoxic, partial curve, poor fit] | [18] 18.7 µM [inhibitor, partial curve, poor fit] | [19] 26.6 µM [inhibitor, single point] | [20] 14.1 µM [cytotoxic, partial curve] | [21] 15.8 µM [cytotoxic, partial curve, poor fit] | [22] 31.6 µM [cytotoxic, single point] | [23] 35.5 µM [cytotoxic, single point] | [24] 10 µM [inhibitor, partial curve]
inactive: [2] | [3] | [4] | [5] | [12]
